Values quoted from earlier work as cited in US5280548A, “Emission based fiber optic sensors for pH and carbon dioxide analysis” (BOC Health Care, Inc., priority 1993, dated 1994).
For at least one compound, name, drawing or mass did not settle the structure.

Details: in benzene; cited from earlier work

SMILES: C1=Cc2nc1c(-c1ccccc1)c1nc(c(-c3ccccc3)c3ccc([nH]3)c(-c3ccccc3)c3ccc([nH]3)c2-c2ccccc2)C=C1 [tetraphenylporphyrin]
- emission yield (Φ), standard: 0.11
